Drawing on article PMC10050702, this text covers binding for two substances.

Results are given in words; binding and its absence hold for the method and conditions named. For some of these results: Binding can be weak; no strength is given. For some of these results: Tags and fused reporters may be left off the sequences shown. For some of these results: Binding seen in cells or lysates may run through a third protein.

For test [1], the target named is T1, ATG18A fused to the Gal4 binding domain (pDEST32) (Arabidopsis thaliana) (UniProt Q93VB2).
T1 sequence: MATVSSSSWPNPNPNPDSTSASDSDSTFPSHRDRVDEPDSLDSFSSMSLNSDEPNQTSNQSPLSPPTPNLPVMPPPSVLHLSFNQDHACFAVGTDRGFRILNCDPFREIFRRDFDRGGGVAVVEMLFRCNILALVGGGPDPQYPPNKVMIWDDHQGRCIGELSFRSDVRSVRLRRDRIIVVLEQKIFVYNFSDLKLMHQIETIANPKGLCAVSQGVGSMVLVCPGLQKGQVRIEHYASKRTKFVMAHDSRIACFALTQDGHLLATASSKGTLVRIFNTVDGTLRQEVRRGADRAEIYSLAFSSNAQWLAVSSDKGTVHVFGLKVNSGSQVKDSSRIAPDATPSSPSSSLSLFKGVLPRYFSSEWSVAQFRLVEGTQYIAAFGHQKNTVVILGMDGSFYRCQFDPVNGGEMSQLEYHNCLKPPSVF
In words: two-hybrid; FYVE3 as prey (Gal4AD, pDEST22), baits on Gal4BD (pDEST32); yeast strains AH109 and Y187; growth on medium lacking Trp, Leu and His with 0 and 1 mM 3-amino-1,2,4-triazole.

For test [2], the target named is T2, ATG6 as yeast two-hybrid bait (Arabidopsis thaliana) (UniProt Q9M367).
T2 sequence: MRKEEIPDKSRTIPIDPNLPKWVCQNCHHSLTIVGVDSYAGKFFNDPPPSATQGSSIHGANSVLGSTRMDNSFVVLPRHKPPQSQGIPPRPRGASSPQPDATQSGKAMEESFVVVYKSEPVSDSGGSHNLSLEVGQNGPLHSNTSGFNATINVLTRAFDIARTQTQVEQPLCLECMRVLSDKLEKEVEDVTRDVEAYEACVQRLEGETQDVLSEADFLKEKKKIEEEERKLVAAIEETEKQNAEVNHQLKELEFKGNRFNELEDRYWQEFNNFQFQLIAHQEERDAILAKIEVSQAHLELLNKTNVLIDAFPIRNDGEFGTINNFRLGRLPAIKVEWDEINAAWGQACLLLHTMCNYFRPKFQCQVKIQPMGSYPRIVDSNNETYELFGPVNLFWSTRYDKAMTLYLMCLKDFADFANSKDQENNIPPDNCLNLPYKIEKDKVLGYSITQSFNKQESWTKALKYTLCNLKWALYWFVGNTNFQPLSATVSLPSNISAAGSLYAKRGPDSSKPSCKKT
The description is as above.

Test [3] deals with T3, ATG8A fused to the Gal4 binding domain (pDEST32) (Arabidopsis thaliana) (UniProt Q8LEM4).
T3 sequence: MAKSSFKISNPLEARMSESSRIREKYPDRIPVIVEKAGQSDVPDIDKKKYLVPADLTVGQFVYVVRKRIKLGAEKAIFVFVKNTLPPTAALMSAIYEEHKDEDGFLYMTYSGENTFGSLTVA
The description is as above.

Test [4] concerns the target T4, ATG8E fused to the Gal4 binding domain (pDEST32) (Arabidopsis thaliana) (UniProt Q8S926).
T4 sequence: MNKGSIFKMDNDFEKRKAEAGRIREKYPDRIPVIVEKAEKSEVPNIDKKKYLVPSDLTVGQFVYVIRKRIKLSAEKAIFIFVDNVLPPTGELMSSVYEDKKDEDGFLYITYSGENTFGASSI
Described as above.

The target of test [5] is T5, ATG8F fused to the Gal4 binding domain (pDEST32) (Arabidopsis thaliana) (UniProt Q8VYK7).
T5 sequence: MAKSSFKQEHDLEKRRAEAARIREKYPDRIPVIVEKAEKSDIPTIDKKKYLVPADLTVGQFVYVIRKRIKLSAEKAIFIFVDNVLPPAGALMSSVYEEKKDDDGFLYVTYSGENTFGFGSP
The test is described as above.

Test [6] addresses T6, ATG8I fused to the Gal4 binding domain (pDEST32) (Arabidopsis thaliana) (UniProt Q9LRP7).
T6 sequence: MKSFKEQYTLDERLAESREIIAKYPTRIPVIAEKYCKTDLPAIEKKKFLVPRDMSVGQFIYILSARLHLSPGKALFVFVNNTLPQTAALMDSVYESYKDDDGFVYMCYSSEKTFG
The description is as above.

For test [7], the target named is T7, CYFP-ATG18A (PSAT5-c(175-END)EYFP-C1(B)-ATG18A) (Arabidopsis thaliana) (UniProt Q93VB2).
T7 sequence: T1 sequence
Kind of test: split reporter; BiFC in Arabidopsis leaf protoplasts; NYFP (EYFP 1-174) on FYVE3, CYFP (EYFP 175-end) on the partners; reconstituted fluorescence by confocal microscopy.

Test [8] has as its target T8, CYFP-ATG6 (PSAT5-c(175-END)EYFP-C1(B)-ATG6) (Arabidopsis thaliana) (UniProt Q9M367).
T8 sequence: T2 sequence
The test is described as above.

The target in test [9] is T9, CYFP-ATG8A (PSAT5-c(175-END)EYFP-C1(B)-ATG8A) (Arabidopsis thaliana) (UniProt Q8LEM4).
T9 sequence: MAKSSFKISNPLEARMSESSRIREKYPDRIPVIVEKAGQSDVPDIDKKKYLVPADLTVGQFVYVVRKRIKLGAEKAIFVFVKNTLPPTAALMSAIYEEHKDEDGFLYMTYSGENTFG
The description is as above.

Test [10] addresses T10, CYFP-TRAF1A (PSAT5-c(175-END)EYFP-C1(B)-TRAF1A) (Arabidopsis thaliana) (UniProt Q8RY18).
T10 sequence: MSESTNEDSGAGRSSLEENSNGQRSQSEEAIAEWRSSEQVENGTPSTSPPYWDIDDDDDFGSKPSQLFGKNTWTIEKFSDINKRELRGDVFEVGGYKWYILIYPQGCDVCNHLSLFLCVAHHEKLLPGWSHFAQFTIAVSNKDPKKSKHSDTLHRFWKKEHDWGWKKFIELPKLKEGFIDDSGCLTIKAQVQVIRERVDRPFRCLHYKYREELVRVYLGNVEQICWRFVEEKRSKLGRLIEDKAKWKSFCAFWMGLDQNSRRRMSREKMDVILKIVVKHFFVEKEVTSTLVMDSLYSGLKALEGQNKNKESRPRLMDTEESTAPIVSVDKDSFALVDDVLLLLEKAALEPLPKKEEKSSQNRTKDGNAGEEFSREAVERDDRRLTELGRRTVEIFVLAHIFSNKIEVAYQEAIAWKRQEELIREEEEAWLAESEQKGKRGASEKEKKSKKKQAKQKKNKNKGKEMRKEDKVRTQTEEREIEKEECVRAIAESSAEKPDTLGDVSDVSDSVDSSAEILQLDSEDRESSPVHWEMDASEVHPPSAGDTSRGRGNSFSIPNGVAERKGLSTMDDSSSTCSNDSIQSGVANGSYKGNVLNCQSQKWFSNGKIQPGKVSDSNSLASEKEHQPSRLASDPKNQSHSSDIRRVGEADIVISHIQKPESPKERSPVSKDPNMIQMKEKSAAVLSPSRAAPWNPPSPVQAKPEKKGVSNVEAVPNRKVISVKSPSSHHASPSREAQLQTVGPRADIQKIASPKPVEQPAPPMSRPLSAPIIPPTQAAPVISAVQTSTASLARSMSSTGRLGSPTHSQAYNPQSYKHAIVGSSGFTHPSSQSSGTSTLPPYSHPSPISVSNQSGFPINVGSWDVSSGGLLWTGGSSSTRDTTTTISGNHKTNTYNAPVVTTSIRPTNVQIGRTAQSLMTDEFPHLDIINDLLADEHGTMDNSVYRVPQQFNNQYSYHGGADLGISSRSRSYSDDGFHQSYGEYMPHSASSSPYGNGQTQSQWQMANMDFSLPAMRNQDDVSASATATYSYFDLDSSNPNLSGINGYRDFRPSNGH
The description is as above.

In the case of “FYVE3 fused to the Gal4 activation domain (pDEST22-FYVE3) (Arabidopsis thaliana)”, the binding result in test [1] was “no binding”; in [2], “no binding”; in test [3], “binds”; in [4], “no binding”; in [5] it was “binds”; in test [6], “no binding”.
Consider “NYFP-FYVE3 (PSAT4-n(1-174)EYFP-C1-FYVE3) (Arabidopsis thaliana)”, for which the binding result in test [7] was “binds”; in test [8], “binds”; in test [9], “binds”; in test [10], “no binding”.
